Reference: US20250018014A1, “METHOD FOR TREATING AND/OR PREVENTING REGNASE-1-RELATED DISEASE” (OSAKA UNIVERSITY, priority 2018, published 2025)
Entries after “also recorded” stand apart in the source; their conditions may differ. At least one structure is not confirmed: it was looked up by name or label, or the drawing left a doubt. Some entries repeat one wording, which the source may state once for all of them. Residues, ends and D or L forms follow the SMILES beside them.

Columns and labels:
Type in all cases: biochemical
[1] = molecular target: T1, ΔCTD_Reg1 (amino acids 1 to 546 of human Regnase-1) phosphorylation by TBK1 (Homo sapiens, UniProt Q5D1E8); experiment: Regnase-1 phosphorylation inhibition by compounds (AlphaScreen), TBK1, CTD-deficient Regnase-1
T1 construct: made in house; host or cells: Expi293 cells
T1 sequence (Q5D1E8 1-546): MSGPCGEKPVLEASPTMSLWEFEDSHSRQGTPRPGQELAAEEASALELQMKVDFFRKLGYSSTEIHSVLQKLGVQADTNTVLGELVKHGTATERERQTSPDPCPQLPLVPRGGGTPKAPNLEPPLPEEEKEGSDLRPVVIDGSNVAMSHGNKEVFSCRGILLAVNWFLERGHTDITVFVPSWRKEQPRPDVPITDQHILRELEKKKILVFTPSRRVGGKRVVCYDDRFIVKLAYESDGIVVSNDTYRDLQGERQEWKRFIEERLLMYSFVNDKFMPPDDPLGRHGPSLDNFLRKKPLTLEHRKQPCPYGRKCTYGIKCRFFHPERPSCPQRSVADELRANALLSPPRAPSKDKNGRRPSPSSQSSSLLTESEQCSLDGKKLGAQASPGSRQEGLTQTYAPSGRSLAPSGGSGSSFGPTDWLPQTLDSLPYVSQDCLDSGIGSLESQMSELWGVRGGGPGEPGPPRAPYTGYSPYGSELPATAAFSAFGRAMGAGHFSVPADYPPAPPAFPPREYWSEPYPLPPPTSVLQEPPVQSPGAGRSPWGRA
Excerpt: The full-length sequence of human Regnase-1 (UniProt ID: Q5D1E8) was used to prepare a construct having a FLAG tag on the N-terminal side and a recognition sequence for biotin ligase BirA on the C-terminal side (FL_Reg1) as a target protein. The above-mentioned Regnase-1 was expressed in mammalian Expi293 cells, purified with FLAG M2 agarose, and isolated by gel filtration chromatography. When biotinylation was required, methods from nonpatent documents (BMC biotechnology, 2008,8,41; and Protein Science, 1999,8,921-929) were used.
(§1) Among the full-length human Regnase-1 sequence, the 1st to 546th amino acid sequence was prepared and made into a construct having a FLAG tag on the N-terminal side and a biotin ligase BirA recognition sequence on the C-terminal side (herein, a Regnase-1 lacking the C-terminal domain of Regnase-1 (amino acids 547 to 599 in the case of SEQ ID NO: 2) is referred to as “ΔCTD_Reg1”. “ΔCTD_Reg1” is different from “Regnase-1ΔCTD”, which is a C-terminal domain deletion variant resulting from a frameshift mutation caused by a 1 bp deletion at codon 517, as prepared in Example 13). In addition, the sequence from amino acids 301 to 599 of the full-length human Regnase-1 sequence was designated as C-terminal Regnase-1, and a construct having a FLAG tag on the N-terminal side and a recognition sequence for biotin ligase BirA on the C-terminal side was prepared (Reg1_301-599). The above-mentioned Regnase-1 was expressed in mammalian Expi293 cells, purified with FLAG M2 agarose, and isolated by gel filtration chromatography. When biotinylation was required, methods of nonpatent documents (BMC biotechnology, 2008,8,41; and Protein Science, 1999,8,921-929) were used.
(§2) Using Kinase assay buffer III (manufactured by SignalChem) supplemented with 2 mM DTT, 100 μM sodium vanadate, and 2 mM manganese chloride, kinase (IKKβ (manufactured by SignalChem) or TBK1 (manufactured by SignalChem)) and Regnase-1 were reacted in the presence of 10 μM ATP at room temperature for 2 hours to perform a phosphorylation reaction.
(§3) Phosphorylated Regnase-1 was detected by the AlphaScreen system. After each of the above-mentioned phosphorylated Regnase-1 antibodies was added and reacted at room temperature for one hour, anti-FLAG AlphaLISA Acceptor Beads (manufactured by PerkinElmer) and Protein A AlphaScreen Donor Beads (manufactured by PerkinElmer) were added, and EnVision (manufactured by PerkinElmer) was used to measure the excited luminescence. As a result, phosphorylated Regnase-1 produced by the phosphorylation reaction by kinase was specifically detected, and signals were confirmed to be enhanced in a manner dependent on Regnase-1 and kinase concentrations (FIG. 24).
(§4) After mixing 2 nM of the above-mentioned Regnase-1 and the compound, phosphorylated Regnase-1 produced by the phosphorylation reaction was detected by the AlphaScreen system. As the results, the inhibition rate was calculated from the signals obtained when adding the compound at each concentration, by defining the signal obtained with Regnase-1 alone to be 100% inhibition rate, and the signal obtained when the same amount of solvent (DMSO) is added in place of the compound as 0% inhibition rate. The 50% inhibition concentration (μM) was calculated from the obtained dose response curve (Table 11).

[2] = molecular target: T2, FL_Reg1 (full-length human Regnase-1) phosphorylation by TBK1 (Homo sapiens, UniProt Q5D1E8); experiment: Regnase-1 phosphorylation inhibition by compounds (AlphaScreen), TBK1, full-length Regnase-1; conditions: concentration-dependent
T2 construct: made in house; host or cells: Expi293 cells
T2 sequence (Q5D1E8 1-599): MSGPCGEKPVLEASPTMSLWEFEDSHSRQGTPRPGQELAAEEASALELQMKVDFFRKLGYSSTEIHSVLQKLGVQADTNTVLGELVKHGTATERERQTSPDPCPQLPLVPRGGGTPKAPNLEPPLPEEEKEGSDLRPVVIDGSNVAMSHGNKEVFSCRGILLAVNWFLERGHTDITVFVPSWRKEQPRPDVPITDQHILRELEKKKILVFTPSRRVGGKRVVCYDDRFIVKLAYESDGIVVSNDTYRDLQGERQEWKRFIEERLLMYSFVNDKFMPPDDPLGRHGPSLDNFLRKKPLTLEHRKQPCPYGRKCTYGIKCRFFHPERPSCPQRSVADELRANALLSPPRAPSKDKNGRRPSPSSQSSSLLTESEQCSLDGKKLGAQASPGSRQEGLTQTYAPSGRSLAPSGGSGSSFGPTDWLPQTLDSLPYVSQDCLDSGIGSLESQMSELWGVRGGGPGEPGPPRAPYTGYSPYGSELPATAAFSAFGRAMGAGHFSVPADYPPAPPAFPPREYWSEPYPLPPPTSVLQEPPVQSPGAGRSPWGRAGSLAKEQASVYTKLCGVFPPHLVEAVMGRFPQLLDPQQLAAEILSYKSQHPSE
Outline: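 FLAG/BirA-tagged human Regnase-1 constructs (full-length, 1–546 or 301–599), expressed in Expi293 cells, were used at 2 nM with compound and phosphorylated by IKKβ or TBK1 with 10 μM ATP, DTT, vanadate and MnCl2 for 2 h at room temperature. Phospho-Regnase-1 was read by AlphaScreen; IC50 came from % inhibition curves normalised to DMSO and Regnase-1-alone signals.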

[3] = molecular target: T3, ΔCTD_Reg1 (amino acids 1 to 546 of human Regnase-1) phosphorylation by IKKβ (Homo sapiens, UniProt Q5D1E8); experiment: Regnase-1 phosphorylation inhibition by compounds (AlphaScreen), IKKβ, CTD-deficient Regnase-1
T3 construct: made in house; host or cells: Expi293 cells
T3 sequence (Q5D1E8 1-546): T1 sequence (Q5D1E8 1-546)
Experimental: as §1, §2, §3, §4

Row | inhibition of phosphorylation of ΔCTD_Reg1 by TBK1, in words [1] | inhibition of phosphorylation of ΔCTD_Reg1 by IKKβ, in words [3] | Compound | inhibition of phosphorylation of full-length Regnase-1 (FL_Reg1) by TBK1, in words [2]
1 | also inhibited phosphorylation | also inhibited phosphorylation | CC[C@H](C)[C@@H]1NC(=O)[C@H](CCCNC(=N)N)NC(=O)[C@H](Cc2ccc(O)cc2)NC(=O)[C@H](Cc2c[nH]c3ccccc23)NC(=O)[C@H](C)NC(=O)[C@H](CO)NC(=O)[C@H](C)NC(=O)[C@H](Cc2c[nH]cn2)NC(=O)[C@H](CCCCN)NC(=O)[C@@H](C)N(C)C(=O)C[C@@H](C(=O)N2CCCC2)NC(=O)[C@H](Cc2c[nH]c3ccccc23)NC1=O [PP3] (HELM PEPTIDE1{[C[C@H](C(=O)[*:2])N(C)[*:1]].K.H.A.S.A.W.Y.R.I.W.D.[C1CCN([*:1])C1]}$PEPTIDE1,PEPTIDE1,1:R1-12:R3$$$V2.0) | inhibited phosphorylation; also recorded: all showed inhibitory activity
2 | also inhibited phosphorylation | also inhibited phosphorylation | CC[C@H](C)[C@@H]1NC(=O)[C@H](CCCCN)NC(=O)[C@H](Cc2ccccc2)NC(=O)[C@H](Cc2c[nH]c3ccccc23)NC(=O)[C@H](CO)NC(=O)[C@H](CO)NC(=O)[C@H](CC(N)=O)NC(=O)[C@@H]2CCCN2C(=O)[C@@H](C)N(C)C(=O)C[C@@H](C(=O)N2CCCC2)NC(=O)[C@H](Cc2c[nH]c3ccccc23)NC1=O [PP6] (HELM PEPTIDE1{[C[C@H](C(=O)[*:2])N(C)[*:1]].P.N.S.S.W.F.K.I.W.D.[C1CCN([*:1])C1]}$PEPTIDE1,PEPTIDE1,1:R1-11:R3$$$V2.0) | inhibited phosphorylation; also recorded: all showed inhibitory activity
3 | also inhibited phosphorylation | also inhibited phosphorylation | CC[C@H](C)[C@@H]1NC(=O)[C@H](CC(N)=O)NC(=O)[C@H](Cc2ccc(O)cc2)NC(=O)[C@H](Cc2c[nH]c3ccccc23)NC(=O)[C@H](C)NC(=O)[C@H](CC(N)=O)NC(=O)[C@H](CO)NC(=O)[C@H](Cc2c[nH]cn2)NC(=O)[C@H](C)N(C)C(=O)C[C@@H](C(=O)N2CCCC2)NC(=O)[C@H](Cc2c[nH]c3ccccc23)NC1=O [PP5] (HELM PEPTIDE1{[meA].H.S.N.A.W.Y.N.I.W.D.[C1CCN([*:1])C1]}$PEPTIDE1,PEPTIDE1,1:R1-11:R3$$$V2.0) | inhibited phosphorylation; also recorded: all showed inhibitory activity

The next lines start with the molecule.

Row | Compound | inhibition of phosphorylation of ΔCTD_Reg1 by TBK1, in words [1] | inhibition of phosphorylation of ΔCTD_Reg1 by IKKβ, in words [3] | inhibition of phosphorylation of full-length Regnase-1 (FL_Reg1) by TBK1, in words [2]
4 | CC(C)[C@@H]1NC(=O)[C@H](CCCCN)NC(=O)[C@H](Cc2ccc(O)cc2)NC(=O)[C@H](Cc2c[nH]c3ccccc23)NC(=O)[C@H](CO)NC(=O)[C@H]([C@@H](C)O)NC(=O)[C@H](C)N(C)C(=O)C[C@@H](C(=O)N2CCCC2)NC(=O)[C@H](CCC(N)=O)NC(=O)CNC(=O)[C@H](Cc2c[nH]c3ccccc23)NC(=O)[C@H](CC(N)=O)NC1=O [PP1] (HELM PEPTIDE1{[meA].T.S.W.Y.K.V.N.W.G.Q.D.[C1CCN([*:1])C1]}$PEPTIDE1,PEPTIDE1,1:R1-12:R3$$$V2.0) | did not inhibit the phosphorylation | did not inhibit the phosphorylation | inhibited phosphorylation; also recorded: all showed inhibitory activity
5 | CC[C@H](C)[C@@H]1NC(=O)[C@H](CC(N)=O)NC(=O)[C@H](Cc2ccc(O)cc2)NC(=O)[C@H](Cc2c[nH]c3ccccc23)NC(=O)[C@H](CO)NC(=O)[C@H](CC(N)=O)NC(=O)[C@H](C)NC(=O)[C@H](Cc2ccc(O)cc2)NC(=O)CNC(=O)[C@H](C)N(C)C(=O)C[C@@H](C(=O)N2CCCC2)NC(=O)[C@H](Cc2c[nH]c3ccccc23)NC1=O [PP2] (HELM PEPTIDE1{[meA].G.Y.A.N.S.W.Y.N.I.W.D.[C1CCN([*:1])C1]}$PEPTIDE1,PEPTIDE1,1:R1-12:R3$$$V2.0) | also inhibited phosphorylation | also inhibited phosphorylation | inhibited phosphorylation; also recorded: all showed inhibitory activity
